The record followed here is paper PMC7819943, “Rice protein-binding microarrays: a tool to detect cis-acting elements near promoter regions in rice”.

Chains of the proteins cited; added tags and fusions are not shown.
UniProt Q0JBA9, entry or part of it: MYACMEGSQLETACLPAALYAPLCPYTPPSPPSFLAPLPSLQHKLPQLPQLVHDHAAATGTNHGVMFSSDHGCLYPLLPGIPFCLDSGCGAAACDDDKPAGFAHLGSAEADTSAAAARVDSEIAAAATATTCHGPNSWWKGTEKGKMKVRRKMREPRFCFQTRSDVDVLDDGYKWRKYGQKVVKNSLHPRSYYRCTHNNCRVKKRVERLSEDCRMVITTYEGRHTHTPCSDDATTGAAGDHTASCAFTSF

This is one part of the list.

This experiment concerns the target OsWRKY34 (Oryza sativa, UniProt Q0JBA9 1-250). As to the kind of experiment: protein-binding microarray (RPBM); PBS, 2% BSA, 51.3 ng/ul salmon testes DNA, 50 uM zinc acetate, 200 nM TF, 25 C, 1 h; high values mean tight binding. Particulars: protein: recombinant; tags: N-terminal polyhistidine and DsRed monomer fusion (pET32a); label: CyDye5-dUTP incorporated in the synthesized complementary strand; 3' TTTTT single-stranded linker to array surface; dsDNA, one strand shown. The gist of the method: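 Binding signal is reported as fluorescence intensity per feature (arbitrary units) from an Axon 4000B scanner. Incubation used 200 nM of each Ni–NTA-purified, N-terminally polyhistidine- and DsRed-fused transcription factor from E. coli BL21-CodonPlus on a double-stranded custom Agilent array for 1 h at 25 °C, with 50 µM zinc acetate in the buffer, followed by washing.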
For the sequence “ACATTGTTGTGTGTGGGTCATTTGTTCATTCATTTGATTCCGGAGTCACCTAGTGCAG”, the binding signal was 11600 fluorescence intensity (a.u.).
For “TCACGTTGGCGCCGCGCACGCACACCTCGCCGCTCTTCCCCGGAGTCACCTAGTGCAG” the value was 8720 fluorescence intensity (a.u.); for “TATAAGATTGTGGTTTATCCGTTTTTCCTGCTTTTCCAAACGGAGTCACCTAGTGCAG”, 10200 fluorescence intensity (a.u.).
For “TCATCAGTCATCACCCACATCGCTCGCGCTCCCATTAAAACGGAGTCACCTAGTGCAG” the value was 8990 fluorescence intensity (a.u.); for “TTAATATATTTTCCTGTAATCTATTTTCTTTTTCTTTCTTCGGAGTCACCTAGTGCAG”, 8570 fluorescence intensity (a.u.).
As for “GCAGTAGTTCCCGTCCCGATTGAATCGCACCGCCAGCACCCGGAGTCACCTAGTGCAG”, the binding signal was 8060 fluorescence intensity (a.u.).
For “CTCTAAACCTCCATCGCACAGTTTCTATCCGATCACCTTCCGGAGTCACCTAGTGCAG” the value was 9350 fluorescence intensity (a.u.); for “CGCACCCATCTCGTCCAGTCTTTCTCCGTCGTCTTCCTCTCGGAGTCACCTAGTGCAG”, 11600 fluorescence intensity (a.u.).
On to “CAGTTCGTTTGACTTGGTTTCTGGCCGCGACGTCTGCTTTCGGAGTCACCTAGTGCAG”, for which the binding signal was 9060 fluorescence intensity (a.u.).
Turning to “GGACTTATTCCTATGCGTGCGAATTCTACTCGCGATATATCGGAGTCACCTAGTGCAG”, the binding signal was 10100 fluorescence intensity (a.u.).
On to “CCTATGGGTTCCACACCTTGGGGTGGGTAGACCGCGCCACCGGAGTCACCTAGTGCAG”, for which the binding signal was 8900 fluorescence intensity (a.u.).
Next, “CTCTCTCTCTCCTCGCGTGACTCGCGCGTGCCCTCGCCGCCGGAGTCACCTAGTGCAG”: 8130 fluorescence intensity (a.u.); “GCCTGGGATGTTGGGTGCCTTTTCGTTGTCCCTCGTCATTCGGAGTCACCTAGTGCAG”: 8560 fluorescence intensity (a.u.).
Consider “CTCGCGTTTCTGTCTTTTTCTCATGACCCCGAATTTCTCTCGGAGTCACCTAGTGCAG”, for which the binding signal was 9950 fluorescence intensity (a.u.).
Next, “CATCCTATGCTGAGATTTCTTCGTCGCCCGGTGGCCCCGGCGGAGTCACCTAGTGCAG”: 8080 fluorescence intensity (a.u.); “ATTAATTTCTCTTTCTTTTCTTTCTTCTTCTCCTTTTTGTCGGAGTCACCTAGTGCAG”: 10600 fluorescence intensity (a.u.); “CCCCTCCTCGCCGCGCCGCCATCTAGGGTTTCGTCTTCTCCGGAGTCACCTAGTGCAG”: 9470 fluorescence intensity (a.u.).
Next, “ACTGTGCAATTGGTTTTTTTCCATATTTAATGCTTCATATCGGAGTCACCTAGTGCAG”: 13200 fluorescence intensity (a.u.).
For “CTATTTTTCTTCTTCCAACCAATCCAGTCCGTCCAGAATACGGAGTCACCTAGTGCAG” the value was 9290 fluorescence intensity (a.u.); for “CTAGTTGTGTTTGTTAATTTCTTTCTATACATGGGTTACCCGGAGTCACCTAGTGCAG”, 11700 fluorescence intensity (a.u.).
For the sequence “ACGTACACTCTACCCACACCACCTCGCTCACTCGCTCGCTCGGAGTCACCTAGTGCAG”, the binding signal was 10900 fluorescence intensity (a.u.).
For “CACCTCACCGTCGCCAGTCGCGCTGCCCAGCCCGCTAGCCCGGAGTCACCTAGTGCAG” the value was 13400 fluorescence intensity (a.u.); for “CCAAATTGTTGTTGCCACATCCTTGATCGTATGCTTCTTACGGAGTCACCTAGTGCAG”, 8420 fluorescence intensity (a.u.); for “AGATTCTGGCTTTTATTTTTGATGCTCTACTCAATTCGATCGGAGTCACCTAGTGCAG”, 9380 fluorescence intensity (a.u.).
On to “TCCTGTATCTGTACGAGTTTTATTTAGTTTCTTTTTTTAACGGAGTCACCTAGTGCAG”, for which the binding signal is 9230 fluorescence intensity (a.u.).
For the sequence “CTCTCTGCTTCACTTCTCTGCTTGTGTTGTTCTGTTGTTCCGGAGTCACCTAGTGCAG”, the binding signal was 13500 fluorescence intensity (a.u.).
With “AATACTCTTTTCATCCGGTCCGCGAGTGATATTATCACTCCGGAGTCACCTAGTGCAG”, the binding signal was 9000 fluorescence intensity (a.u.).
On to “TTTATTCAATCCTCACATTCTCAGTTTATTTTATTTTATTCGGAGTCACCTAGTGCAG”, for which the binding signal is 8920 fluorescence intensity (a.u.).
Turning to “AACGGTCAAATATGTGCTAAAAAGTCAACGGTGTCAAATACGGAGTCACCTAGTGCAG”, the binding signal is 11300 fluorescence intensity (a.u.).
Take “CTTGCAGTTTCGGCCCGATGCACCGCCACGCGTATTTCCGCGGAGTCACCTAGTGCAG”: the binding signal is 11100 fluorescence intensity (a.u.).
For “GATGTTTCAGAGGTTTATTCACTTATACTGTTATAGTACACGGAGTCACCTAGTGCAG” the value was 9760 fluorescence intensity (a.u.); for “TTATTTCATTCCTTTGCAGCAGTATCCATGTTGAGGTTATCGGAGTCACCTAGTGCAG”, 14000 fluorescence intensity (a.u.); for “TTGGCATCAATCTATACAACTATCTCTACATGCTGCAGAACGGAGTCACCTAGTGCAG”, 8530 fluorescence intensity (a.u.).
For “TGCCACACGTCGCCGGTCATTACGAACACGCACCTTTAACCGGAGTCACCTAGTGCAG” the value was 8160 fluorescence intensity (a.u.); for “ATTCTCGCTTTGGCCCTCGTGCCCTGCGCTTATATGCATACGGAGTCACCTAGTGCAG”, 8260 fluorescence intensity (a.u.).
For the sequence “CTTCAACTACCTTTCACCCTCTTTTGGTATGCTTGATTGTCGGAGTCACCTAGTGCAG”, the binding signal was 9070 fluorescence intensity (a.u.).
For “AATACTCACAATTATTGTTCTTCTACAACATGTTTCACAACGGAGTCACCTAGTGCAG” the value was 8180 fluorescence intensity (a.u.); for “TGTTCTGGGAGTTGATGTACTTCCTCAGGTCGGGGTTCTTCGGAGTCACCTAGTGCAG”, 11200 fluorescence intensity (a.u.).
For “ATGCTCTCTCTCGCTCTCGACGGCAATCTCCTCCGGCAAACGGAGTCACCTAGTGCAG” the value was 10500 fluorescence intensity (a.u.); for “ATTATTGTGTGTGTGGGGAACTGGCCCTACGAGTTTTATTCGGAGTCACCTAGTGCAG”, 10700 fluorescence intensity (a.u.); for “CGCACTGGCGGGGCTTGGAGCTGGGGTTTCTAGGGTTTGGCGGAGTCACCTAGTGCAG”, 8980 fluorescence intensity (a.u.).
Regarding “AAACATCCAACGTGATACCCAAAAGTTTTCTTTGCGCAACCGGAGTCACCTAGTGCAG”, the binding signal was 8240 fluorescence intensity (a.u.).
With “CACCAGTCCACTTCCCTGCACATGCACCAAACCACCAATTCGGAGTCACCTAGTGCAG”, the binding signal is 8190 fluorescence intensity (a.u.).
Regarding “CATAACCAACCTCGACAGCCTCCTATCGCGTTTCCTATAACGGAGTCACCTAGTGCAG”, the binding signal is 8760 fluorescence intensity (a.u.).
Regarding “GAGGTGGAGGTGCGGAAAAGCCGCGGCGTTGTTGTCTTGCCGGAGTCACCTAGTGCAG”, the binding signal is 9420 fluorescence intensity (a.u.).
Regarding “ATTCTTGCCGTCCAACCGCCTGCCTTGATTAATCCGTCGTCGGAGTCACCTAGTGCAG”, the binding signal is 9040 fluorescence intensity (a.u.).
Next, “CTAATTGAACGGTCAATTCTTACCCATTCATGGTTCGATTCGGAGTCACCTAGTGCAG”: 8350 fluorescence intensity (a.u.); “TCCATCGTTCCCTTTGTAACCTGTATTTTCCACCATATAACGGAGTCACCTAGTGCAG”: 14500 fluorescence intensity (a.u.).
“GTGCTGATCCATTTGCCGCATGCTGGTGAGCTAACGTGACCGGAGTCACCTAGTGCAG”: the binding signal was 9820 fluorescence intensity (a.u.).
Regarding “ATTCGAATTTCTCTCTCTCTCTCTCTAGTCTCTATAAACACGGAGTCACCTAGTGCAG”, the binding signal was 8510 fluorescence intensity (a.u.).
On to “GGCGGGTGGCTGCTCGCCGGACATGGTGGGTGGGTGCGTGCGGAGTCACCTAGTGCAG”, for which the binding signal is 9310 fluorescence intensity (a.u.).
Next, “TATTGCACCTTTTCTCTATTGTTTTGAATTCAGTGAAGATCGGAGTCACCTAGTGCAG”: 11600 fluorescence intensity (a.u.).
Next, “CGCCTCCGTCTCTTCGCCCTATAAAACCAACGCGCTTCTCCGGAGTCACCTAGTGCAG”: 9420 fluorescence intensity (a.u.); “CTCTGCAATCCCCACGCCGCCGCCTCCTCATTCCTTCCCGCGGAGTCACCTAGTGCAG”: 8840 fluorescence intensity (a.u.).
